Test results: PMC4392876
These are yes or no findings as the source states them, for the method shown. For part of these data: In cells and extracts the contact can be indirect. Some binding calls cover weakened binding; strength is not graded here. Sequences can lack the tags named with a protein.

Protein sequences, listed by entry. Tags and fused reporters are not part of them. Lines headed by an entry give the natural chain unless they say otherwise; changes in a name come on top.
UniProt Q5TKA1: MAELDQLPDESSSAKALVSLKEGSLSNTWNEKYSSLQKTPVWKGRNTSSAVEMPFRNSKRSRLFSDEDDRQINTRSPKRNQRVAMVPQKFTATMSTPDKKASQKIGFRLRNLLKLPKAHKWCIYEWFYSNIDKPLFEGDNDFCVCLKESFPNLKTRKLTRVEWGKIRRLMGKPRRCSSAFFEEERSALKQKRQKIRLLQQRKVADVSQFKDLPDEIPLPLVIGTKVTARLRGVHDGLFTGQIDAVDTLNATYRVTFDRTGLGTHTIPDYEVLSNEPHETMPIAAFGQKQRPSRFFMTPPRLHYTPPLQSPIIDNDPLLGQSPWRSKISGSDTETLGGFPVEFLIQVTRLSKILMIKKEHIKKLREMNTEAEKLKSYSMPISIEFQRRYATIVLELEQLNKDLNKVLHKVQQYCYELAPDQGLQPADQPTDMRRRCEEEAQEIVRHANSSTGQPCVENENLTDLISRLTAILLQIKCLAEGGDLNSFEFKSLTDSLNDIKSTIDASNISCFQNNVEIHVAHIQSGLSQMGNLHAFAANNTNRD

Columns and labels:
[1] = target: T1, GST-FOXM1(1–367) (human) (UniProt Q08050); assay: pull-down; GST pulldown: 500 ng of GST-FOXM1(1-367) as bait with 1/10 of the eluate of the His-tagged Lin9 proteins purified from bacteria; detection by immunoblotting with anti-Flag and anti-GST; both purified
T1 sequence: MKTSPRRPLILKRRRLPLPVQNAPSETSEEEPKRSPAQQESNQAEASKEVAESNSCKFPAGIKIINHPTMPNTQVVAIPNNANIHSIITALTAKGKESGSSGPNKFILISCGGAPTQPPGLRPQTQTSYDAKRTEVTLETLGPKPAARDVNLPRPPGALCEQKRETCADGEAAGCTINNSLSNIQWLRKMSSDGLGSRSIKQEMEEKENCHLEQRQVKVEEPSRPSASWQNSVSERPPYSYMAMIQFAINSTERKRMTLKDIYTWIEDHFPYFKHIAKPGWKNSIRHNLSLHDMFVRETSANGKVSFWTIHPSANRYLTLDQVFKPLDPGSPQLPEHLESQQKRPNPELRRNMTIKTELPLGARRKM

[2] = target: T1, GST-FOXM1(1–367) (human); assay: pull-down; GST pulldown: 500 ng of GST-FOXM1(1-367) as bait with 1 µl of in vitro translated proteins; precipitated proteins detected by phosphorimaging; only the target purified

Substance	binding [1]	binding [2]
full-length Lin9, bacterially expressed and purified (pAS3094, pET-30b-Lin9(full-length)) (from UniProt Q5TKA1 1-542)	binds	–
Lin9 isoform 1, in vitro translated (pAS3078, pcDNA3.1-Lin9 isoform 1) (from UniProt Q5TKA1 1-542)	–	binds
Lin9(1–270), bacterially expressed and purified (pAS3091, pET-30b-Lin9(1–270)) (from UniProt Q5TKA1 1-270) (domain or fragment)	binds	–
